The data set is described as follows: general procedure: Fmoc solid-phase peptide synthesis; Rink amide resin; 2-chloro-trityl chloride resin (1.22 mmol/g loading); PyBOP/NMM; HATU/NMM.
The mark [1] stands for this setting: late stage modification step, TFA salt.

Among the data in patent publication US20160122383 (published 2016) are step yield, isolated yield and isolated mass values, retold here.

In the case of Ac-LYRANGD(β-SH)SPGYS-NH2, the step yield (coupling step, TFA salt) was 80%.

As for Ac-LYRANMDSPGYS-NH2, the step yield under setting [1] came out at 63%.

For H-(β-SH)DSPGYS-NH2, where the note is “whole synthesis, based on the original 25 μmol resin loading, scale 25 umol, TFA salts”, the isolated yield worked out at 84%. For the setting “whole synthesis, scale 25 umol, TFA salts”, the isolated mass stood at 14.8 mg.

Regarding Ac-LYRANAD(β-SH)SPGYS-NH2, where the note is “coupling step, TFA salt”, the step yield is recorded as 82%.

As to Ac-LYRANFD(β-SH)SPGYS-NH2, under “coupling step, TFA salt”, the step yield was found to be 78%.

Consider Ac-LYRANADSPGYS-NH2, for which the step yield under setting [1] was found to be 71%.

Consider Ac-LYRANFDSPGYS-NH2, for which, under setting [1], the step yield is recorded as 76%.

As to Ac-LYRANMD(β-SH)SPGYS-NH2, the step yield (coupling step, TFA salt) was found to be 71%.

H-D(SH)SPCYS-NH2: the isolated yield (whole synthesis, based on the original 10 mol resin loading, TFA salts) turned out to be 62%.

On to Ac-LYRANVD(β-SH)SPGYS-NH2, for which, for the setting “coupling step, TFA salt”, the step yield amounted to 75%.

For Ac-LYRANGDSPGYS-NH2, the step yield under setting [1] was determined as 75%.

Take chimadanin: the step yield (coupling step, over one-pot four-step sequence, TFA salts) was determined as 35% yield.

For Ac-LYRANVDSPGYS-NH2, under setting [1], the step yield was 71%.
